# Source: PubChem BioAssay AID1117359 (Southern Research Institute, 2015)
# Where “and” joins values, the source holds several entries; their conditions need not be identical. Identical values can stand only once. Hit rate of the full screen: of about 1,500 compounds, about 460 (31%) were called active.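 The calls were made as follows: active = viability at or below 80% at any tested concentration, marking the compound as toxic; inactive = the rest.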 The entries are a selection whose mix differs from that of the whole data set. Entries with a potency or affinity are not part of this list.
# Assay: viability loss in THP-1 monocytes – THP-1 cells, cytotoxicity control for Vif-APOBEC3G degradation inhibitor project, dose response (AID 1117359)
# Settings: THP-1 viability, CellTiter-Glo luminescence, 72 h; at 40 µM (top of the series)
row,Structure (SMILES),viability
1,COc1cc(-n2cnnn2)ccc1S(=O)(=O)N1CCOCC1,inactive: 106%
2,O=c1[nH]c2ccccc2n2c(-c3ccccc3)nnc12,inactive: 98.6%
3,CC(=O)c1ccc2c(c1)C1C=CCC1C(C(=O)O)N2 (configuration not stated),inactive: 97.9%
4,O=C(COC(=O)c1ccccc1)Nc1ncc([N+](=O)[O-])s1,inactive: 85%
5,CCOc1cc(N2CCOCC2)c(OCC)cc1NC(C)C(=O)N1CCN(CC)CC1 (configuration not stated),inactive: 108%
6,NNC(=S)Nc1ccc(Cl)cc1,inactive: 98.7%
7,COC(=O)C(Cc1c[nH]c2ccccc12)NC(=O)C(C)C (configuration not stated),inactive: 107%
8,CCOc1cc(C(C(=O)NCC2CCCO2)N(C(=O)Cn2nnc3ccccc32)c2cccc(OC)c2)ccc1O (configuration not stated),inactive: 98.6%
9,COC(=O)Cc1csc(Nc2c(C)n(C)n(-c3ccccc3)c2=O)n1,inactive: 117%
10,Cc1ccc(Oc2ccc(/C=N/O)cn2)cc1,inactive: 89.2%
11,O=C(/C=C/c1ccc(O)c(O)c1)OC1C(O)CC(OC(=O)/C=C/c2ccc(O)c(O)c2)(C(=O)O)CC1O (configuration not stated),inactive: 91.9% and inactive: 114%
12,FC(F)Oc1ccccc1NC(=S)Nc1cccnc1,inactive: 80.5%
13,O=C(Cn1c(=O)[nH]c2ccccc2c1=O)N1CCN(c2cccc(Cl)c2)CC1,inactive: 105%
14,COc1ccc(/C=C/C(=O)NC(=S)Nc2ccccn2)cc1,inactive: 99.5%
15,C/C(=C\C(=O)c1cccnc1)Nc1ccc(O)cc1,inactive: 101%
16,O=C(O)C1Nc2c(C(=O)N3CCOCC3)cccc2C2C=CCC12 (configuration not stated),inactive: 111%
17,CCOC(=O)COn1c(=O)c(-c2ccc(Cl)cc2)[n+]([O-])c2ccccc21,inactive: 112%
18,NNC(=O)CCN1CCN(C(c2ccccc2)c2ccccc2)CC1,inactive: 83.4%
19,O=C(Nc1ccccc1F)c1coc(=O)c(Br)c1,inactive: 88%
20,Cc1cc(C)cc(NCCC#N)c1,inactive: 88.6%
21,O=C(O)C1Nc2c(O)cc(Cl)c([N+](=O)[O-])c2C2C=CCC12 (configuration not stated),inactive: 85%
22,COC(=O)CCC(=O)OC1(C)C(=O)C2=COC(c3ccc(OC)cc3)=CC2=C(Br)C1=O (configuration not stated),inactive: 117%
23,Nc1cccc2c1C(=O)N(C(=O)/C=C/c1cccc(Br)c1)C2=O,inactive: 95.2%
24,Cc1ccc(NC(=O)Nc2ccc3c(c2)nc(C)n3C)cc1,inactive: 109%
25,Cn1c(SCC(=O)c2cc(Cl)c(Cl)s2)nnc1-c1ccco1,inactive: 112%
26,COc1ccccc1-n1c(-c2cc(-c3ccco3)[nH]n2)n[nH]c1=S,inactive: 106%
27,Cc1ccc2c(c1)c(CC(=O)Nc1ccc(C)c(F)c1)c(C(=O)O)n2C,inactive: 92.8%
